This data set has as its system V79 cells. As to the kind of experiment: Fluorescence microscopy of intracellular localization. It counts as cell-based, Chinese hamster. The settings on record: 1 μg/ml for 18 hours, then 1 hour sensitizer-free medium.

With “Tetraphenyl chlorin disulfonate [TPCS2a]”, the intracellular localization entry was “localize in endocytic vesicles”.

For the origin of these results see US8096419B2, “Compound” (PCI Biotech AS, priority 2001, dated 2012).
